These are yes or no findings as the source states them, for the method shown. In cells and extracts the contact can be indirect. Some entries that bind do so weakly or less than the wild type. One block for each substance: values may come before it.
Columns and labels:
[1] = target: myc-tagged catalytically inactive PRMT5 (myc-PRMT5 MD) (UniProt O14744); assay: co-IP; transfected 293T cells, untreated or damaged with 10 Gy IR; myc-PRMT5 MD immunoprecipitated, associated RUVBL1 detected by FLAG immunoblotting (Figure 3H)
[2] = target: RUVBL1 (endogenous, HeLa) (human (endogenous in HeLa)) (UniProt Q9Y265); assay: co-IP; endogenous RUVBL1 immunoprecipitated from HeLa lysate, endogenous PRMT5 detected (Figure 3C)
[3] = target: FLAG-tagged RUVBL2 (human) (UniProt Q9Y230); assay: co-IP; ectopic myc-PRMT5 MD with FLAG-RUVBL1 or FLAG-RUVBL2 (Figure 3B); 0.1% NP40 lysis buffer, 150 mM NaCl; cell line not stated
[4] = target: FLAG-tagged RUVBL1 (wild type) (human) (UniProt Q9Y265); assay: as above

By UniProt entry, the sequences of proteins in these tests, tags left out. Where a name states a change or a piece, a line headed by the entry shows the natural chain unless it says otherwise. Chains listed by the source or under a name are the forms on record and can include a tag or linker.
UniProt O14744: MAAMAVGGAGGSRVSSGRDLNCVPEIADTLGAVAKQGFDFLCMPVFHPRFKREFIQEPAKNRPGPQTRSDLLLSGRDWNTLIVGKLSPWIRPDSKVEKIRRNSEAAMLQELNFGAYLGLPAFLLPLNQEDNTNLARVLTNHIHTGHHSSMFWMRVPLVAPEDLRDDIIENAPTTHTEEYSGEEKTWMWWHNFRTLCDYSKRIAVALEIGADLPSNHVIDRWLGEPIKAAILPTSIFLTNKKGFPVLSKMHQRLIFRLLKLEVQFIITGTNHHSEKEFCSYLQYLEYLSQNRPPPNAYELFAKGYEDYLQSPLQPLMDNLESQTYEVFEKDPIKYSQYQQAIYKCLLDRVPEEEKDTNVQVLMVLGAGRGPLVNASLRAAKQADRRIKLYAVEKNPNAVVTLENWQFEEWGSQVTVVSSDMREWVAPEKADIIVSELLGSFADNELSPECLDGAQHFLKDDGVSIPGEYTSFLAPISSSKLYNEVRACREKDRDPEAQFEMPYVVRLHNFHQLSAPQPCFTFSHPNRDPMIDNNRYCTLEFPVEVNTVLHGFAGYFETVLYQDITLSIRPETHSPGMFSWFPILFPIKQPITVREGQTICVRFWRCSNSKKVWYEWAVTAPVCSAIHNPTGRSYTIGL
myc-tagged catalytically inactive PRMT5 (myc-PRMT5 MD) (O14744, form named): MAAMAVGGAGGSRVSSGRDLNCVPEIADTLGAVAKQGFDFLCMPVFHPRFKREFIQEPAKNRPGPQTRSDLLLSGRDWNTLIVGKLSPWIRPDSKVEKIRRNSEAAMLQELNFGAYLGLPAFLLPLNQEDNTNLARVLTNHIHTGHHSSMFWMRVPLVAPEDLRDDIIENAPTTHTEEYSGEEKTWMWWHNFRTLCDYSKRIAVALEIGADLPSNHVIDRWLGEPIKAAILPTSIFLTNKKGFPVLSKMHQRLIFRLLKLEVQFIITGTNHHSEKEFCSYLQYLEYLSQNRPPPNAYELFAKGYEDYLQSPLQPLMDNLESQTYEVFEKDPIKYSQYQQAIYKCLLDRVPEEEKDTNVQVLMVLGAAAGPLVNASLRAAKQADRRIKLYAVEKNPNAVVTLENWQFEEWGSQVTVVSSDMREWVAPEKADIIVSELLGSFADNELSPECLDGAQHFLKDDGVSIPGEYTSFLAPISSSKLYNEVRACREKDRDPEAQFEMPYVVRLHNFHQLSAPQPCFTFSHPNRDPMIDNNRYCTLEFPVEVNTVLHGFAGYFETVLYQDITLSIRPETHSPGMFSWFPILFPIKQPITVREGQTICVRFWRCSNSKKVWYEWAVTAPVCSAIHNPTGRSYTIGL
UniProt Q9Y265: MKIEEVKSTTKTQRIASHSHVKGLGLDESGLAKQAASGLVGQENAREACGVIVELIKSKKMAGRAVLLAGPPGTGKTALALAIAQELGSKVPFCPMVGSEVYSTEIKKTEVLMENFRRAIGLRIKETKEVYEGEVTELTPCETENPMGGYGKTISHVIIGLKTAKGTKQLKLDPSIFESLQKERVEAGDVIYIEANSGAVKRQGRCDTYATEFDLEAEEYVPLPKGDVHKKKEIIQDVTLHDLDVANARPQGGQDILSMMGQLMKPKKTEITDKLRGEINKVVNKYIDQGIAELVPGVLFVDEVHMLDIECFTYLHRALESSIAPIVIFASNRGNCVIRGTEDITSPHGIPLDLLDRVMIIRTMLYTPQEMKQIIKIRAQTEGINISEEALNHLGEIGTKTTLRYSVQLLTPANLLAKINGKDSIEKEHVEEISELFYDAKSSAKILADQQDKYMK
UniProt Q9Y230: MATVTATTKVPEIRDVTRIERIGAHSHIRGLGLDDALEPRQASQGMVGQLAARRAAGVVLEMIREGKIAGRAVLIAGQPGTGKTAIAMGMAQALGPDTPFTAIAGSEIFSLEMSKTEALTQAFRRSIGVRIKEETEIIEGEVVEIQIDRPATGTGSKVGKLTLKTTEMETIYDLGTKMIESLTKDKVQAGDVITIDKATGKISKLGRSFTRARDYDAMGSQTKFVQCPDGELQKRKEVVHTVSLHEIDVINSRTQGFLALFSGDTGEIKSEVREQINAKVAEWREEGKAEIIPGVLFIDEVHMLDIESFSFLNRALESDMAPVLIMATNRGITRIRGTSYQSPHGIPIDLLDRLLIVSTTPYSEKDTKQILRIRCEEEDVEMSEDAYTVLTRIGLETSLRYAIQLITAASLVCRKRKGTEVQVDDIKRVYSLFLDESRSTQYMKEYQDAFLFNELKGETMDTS

Substance: FLAG-tagged RUVBL1 (wild type) (from UniProt Q9Y265 1-456)
- binding [1]: binds

- binding [2]: binds
Substance: PRMT5 (endogenous, HeLa) (from UniProt O14744 1-637) (enzyme)

- binding [3]: binds
- binding [4]: binds
Substance: myc-tagged catalytically inactive PRMT5 (myc-PRMT5 MD) (from UniProt O14744 1-637) (enzyme)

— article PMC5344794
